Laboratory results published in patent US6844318B2 (priority 2000, dated 2005).
HELM strings list residues between dots; [ac] is acetyl, [am] amide, other brackets name non-standard units.

Test: general procedure: Fmoc solid-phase peptide synthesis; Fmoc-Leu-Wang resin; HBTU (SPPS); PyBop or BOP with DIEA for doxorubicin coupling
Details: analytical HPLC on Metachem Monochrom C18 reverse phase column (50×4.6 mm); for final purity (method not given): late stage modification step; for crude HPLC purity: whole synthesis

Substance	final purity (method not given) [% pure]	crude HPLC purity (scale 0.6 mmol) [%]	crude HPLC purity (scale 0.25 mmol) [%]
H2NCH2CH2N(CH2CH2)2NCH2C(═O)-P-L-G-L-L-Dox	90		
PEPTIDE1{[ac].P.L.G.L.[Dox]}$$$$V2.0		85	
acetyl-P-L-G-Hof-Orn-L-Dox	95		90
acetyl-P-L-G-L-Y-L-Dox			80
